Measured values published in PubChem BioAssay AID2685 (National Center for Advancing Translational Sciences (NCATS), 2010).
Hit rate of the full screen: of about 320,000 compounds, about 2,100 (0.66%) were called active. Calls come from the whole dose curve; as a rule, active = well fitted inhibition curve with a large enough effect in the signal ratio, with a control signal flat (not every such curve was filed as active); inconclusive = small, poorly fitted or top-dose-only effect, or effect the other way, or a change in a side signal; inactive = flat fitted curve, though single readings scatter; the % refers to the signal ratio. The inconclusive results got no clear call from the source. Potencies beside an inconclusive call are fits to weak or partial responses and may not hold up.

Experiment: qHTS Assay for Lipid Storage Modulators in Drosophila S3 Cells
Settings: BODIPY lipid droplet fluorescence, 18-24 h, cells fed with added oleic acid; lipid storage change, negative = inhibition: at 46.1 µM (top of the series) unless noted
Procedure, shortened: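 Drosophila S3 cells loaded with oleic acid (400 uM, as added) and compounds at several concentrations; lipid droplets imaged by 488-nm laser-scanning cytometry, 500–530 nm intensity and object ratio to cell channel. Percent activity normalized to 20 uM Triacsin C.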
% is set by controls: 0 for no effect and ±100 for the full control effect; potency is the fitted concentration of half-maximal effect.

Row | Compound | Potency | lipid storage change, negative = inhibition
1 | CCC(OC(=O)C1=Cc2ccccc2OC1)C(=O)NCc1ccco1 (stereo unspecified) | inconclusive: 0.116 µM [falling, full curve, poor fit] | 
2 | CCOC(=O)c1cc2c(=O)n3ccccc3nc2n(C(C)C)c1=NC(=O)c1ccncc1 |  | inconclusive: -23.7%
3 | COc1ccc(N=c2ssnc2Cl)cc1 | inconclusive: 20.6 µM [cytotoxic, single point] | 
4 | COc1ccc2[nH]c(C(=O)N3CCCN(Cc4ccc(F)cc4)CC3)cc2c1 |  | inconclusive: 10.2%
5 | O=C(CN1C(=O)c2ccccc2S1(=O)=O)NCc1cccs1 |  | inconclusive: -0.75%
6 | CC(C)NC(=O)CSCc1ccccc1Cl |  | inconclusive: -31.3%
7 | O=C(N/N=C/c1ccccn1)c1cc(C2CC2)[nH]n1 |  | inconclusive: 38.7%
8 | Cc1ccc(-n2nc(C(=O)O)nc2-c2ccccc2)cc1 |  | inconclusive: -35.2%
9 | COc1ccc(NC(=O)COC(=O)c2ccco2)c([N+](=O)[O-])c1 |  | inconclusive: -31.8%
10 | CN1C(=O)c2ccccc2C(C(=O)NCC2CCCO2)C1c1c[nH]c2ccccc12 (stereo unspecified) |  | inconclusive: 0.682%
11 | CC1CCCCC1NC(=O)NC(=O)COC(=O)C1=NN(c2ccccc2)C(=O)CC1 (stereo unspecified) | inconclusive: 23.1 µM [activator, single point] | 
12 | Cc1[nH]c2ccc(C(=O)OC(C)C(=O)NCc3ccccc3)cc2c1C (stereo unspecified) |  | inconclusive: 14.7%
13 | COC(=O)c1cccc(-n2sc3ccccc3c2=O)c1 | inconclusive: 4.61 µM [cytotoxic, single point] | 
14 | CCC(c1nnc(SCC(=O)Nc2ccc(S(N)(=O)=O)cc2)n1Cc1ccccc1)N(C)C (stereo unspecified) |  | inconclusive: -23%
15 | O=c1c(-c2ccc([N+](=O)[O-])cc2)coc2c(O)c(O)ccc12 | inconclusive: 0.461 µM [falling, partial curve, poor fit] | 
16 | O=C(NCc1ccccn1)C1CC(c2ccc(F)cc2)=NO1 (stereo unspecified) |  | inconclusive: 3.88%
17 | O=C(CN1CCN(Cc2ccc3c(c2)OCO3)CC1)Nc1ccc2c(c1)OCCO2 | inconclusive: 9.2 µM [activator, partial curve, poor fit] | 
18 | O=C(NCc1ccccc1)C1CCCN(C(=O)NCc2ccccc2)C1 (stereo unspecified) | inconclusive: 2.91 µM [activator, full curve, poor fit] | 
19 | COc1ccc(S(=O)(=O)NCc2csc(C)n2)cc1OC |  | inconclusive: 30.8%
20 | CC(=O)N1CCN(C23CC4CC(CC(C4)C2)C3)CC1 |  | inconclusive: 8.85%
21 | Cc1ccc(CN2CCS(=O)(=O)CC2)o1 |  | inconclusive: -43.6%

2 entries picked at random from the list so far:
Row | Compound | Potency | lipid storage change, negative = inhibition
10 | CN1C(=O)c2ccccc2C(C(=O)NCC2CCCO2)C1c1c[nH]c2ccccc12 (stereo unspecified) |  | inconclusive: 0.682%
5 | O=C(CN1C(=O)c2ccccc2S1(=O)=O)NCc1cccs1 |  | inconclusive: -0.75%
